# From PMC4474691, “Leukemia-Associated Mutations in Nucleophosmin Alter Recognition by CRM1: Molecular Basis of Aberrant Transport” (PLoS ONE, 2015)
# Amino acid sequences for entries named in this document (tags omitted).
# UniProt Q6P5F9: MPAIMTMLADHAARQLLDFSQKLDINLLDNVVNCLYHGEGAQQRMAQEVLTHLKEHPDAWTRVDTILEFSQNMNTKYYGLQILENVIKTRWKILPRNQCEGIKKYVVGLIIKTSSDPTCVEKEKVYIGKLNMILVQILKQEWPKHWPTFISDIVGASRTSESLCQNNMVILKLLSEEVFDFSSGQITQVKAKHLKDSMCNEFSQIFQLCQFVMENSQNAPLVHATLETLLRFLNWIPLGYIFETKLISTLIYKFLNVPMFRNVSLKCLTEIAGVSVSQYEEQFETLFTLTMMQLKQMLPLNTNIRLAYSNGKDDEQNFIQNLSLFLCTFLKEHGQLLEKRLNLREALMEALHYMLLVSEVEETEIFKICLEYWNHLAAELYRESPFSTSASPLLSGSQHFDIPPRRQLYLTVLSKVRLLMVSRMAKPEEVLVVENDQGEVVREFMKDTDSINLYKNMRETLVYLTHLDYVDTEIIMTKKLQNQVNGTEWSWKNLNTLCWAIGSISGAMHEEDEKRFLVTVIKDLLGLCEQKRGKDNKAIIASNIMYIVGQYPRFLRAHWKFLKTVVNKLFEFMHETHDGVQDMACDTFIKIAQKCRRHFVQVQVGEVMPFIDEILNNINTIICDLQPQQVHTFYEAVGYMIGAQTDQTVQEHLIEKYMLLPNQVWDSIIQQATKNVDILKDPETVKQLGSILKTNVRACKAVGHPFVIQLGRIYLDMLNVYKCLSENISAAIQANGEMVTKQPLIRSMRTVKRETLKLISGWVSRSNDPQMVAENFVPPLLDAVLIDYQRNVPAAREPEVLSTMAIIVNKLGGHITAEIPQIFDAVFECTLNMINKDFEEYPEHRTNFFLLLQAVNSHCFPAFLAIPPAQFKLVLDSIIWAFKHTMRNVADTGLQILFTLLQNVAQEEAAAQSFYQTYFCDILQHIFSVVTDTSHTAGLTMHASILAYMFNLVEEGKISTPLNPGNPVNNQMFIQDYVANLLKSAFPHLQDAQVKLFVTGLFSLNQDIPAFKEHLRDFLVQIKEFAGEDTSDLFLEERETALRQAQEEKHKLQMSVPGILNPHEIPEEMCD
# Results are given in words; binding and its absence hold for the method and conditions named. Some binding calls cover weakened binding; strength is not graded here.
# Biological target: T1, TFP-PKI(NES)
# T1 sequence: ISGGGGLALKLAGLDI
# Assay: fluorescence polarisation; fluorescence anisotropy of TFP/YFP-NES construct (50 nM) titrated with 0–60 μM CRM1; 25°C; 20 mM Tris/HCl pH 7.4, 50 mM NaCl, 5 mM DTT, 2 mM MgCl2; apparent KD (C50); both purified
substance,measurement,value
wild type CRM1 (mouse) (from UniProt Q6P5F9 1-1071) (receptor),binding,binds weakly
